From article doi:10.1101/2021.09.21.461241
No constants are given. Whether binding was seen depends on the method and setting. Binding can be weak; no strength is given. Where a sequence is shown, tags or fusion partners need not be part of it. For part of these data: In cells and extracts the contact can be indirect. Blank lines part the entries; values can stand above or below the substance they belong to.

Legend:
OsSAPK10-GFP (rice) = target: T1, OsSAPK10-GFP (rice) (UniProt Q75H77); assay: co-IP
T1 sequence: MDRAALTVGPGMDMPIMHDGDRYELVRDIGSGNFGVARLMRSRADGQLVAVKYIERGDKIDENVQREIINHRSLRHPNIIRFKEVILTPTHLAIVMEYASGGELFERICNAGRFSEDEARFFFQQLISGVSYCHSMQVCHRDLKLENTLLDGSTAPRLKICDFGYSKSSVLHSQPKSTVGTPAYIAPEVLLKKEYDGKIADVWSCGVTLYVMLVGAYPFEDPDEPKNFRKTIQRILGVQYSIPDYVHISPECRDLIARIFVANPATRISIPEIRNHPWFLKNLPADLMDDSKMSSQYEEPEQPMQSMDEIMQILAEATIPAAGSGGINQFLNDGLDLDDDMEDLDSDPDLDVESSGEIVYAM

[1] = target: T2, OsSAPK10 fused with the N-terminus of YFP (BiFC construct) (rice) (UniProt Q75H77); assay: split reporter
T2 sequence: T1 sequence

MBP-OsSAPK10 (rice) = target: T3, MBP-OsSAPK10 (rice) (UniProt Q75H77); assay: pull-down
T3 sequence: T1 sequence

binding (OsSAPK10-GFP (rice)): binds
Substance: OsbZIP86-FLAG (rice (Oryza sativa L.))

binding [1]: binds
Substance: OsbZIP86 fused with the C-terminus of YFP (BiFC construct) (rice (Oryza sativa L.))

binding (MBP-OsSAPK10 (rice)): binds
Substance: GST-OsbZIP86 (rice (Oryza sativa L.))
